The assay can be described thus: qHTS Assay to Find Inhibitors of Chronic Active B-Cell Receptor Signaling. As to conditions: ABC-DLBCL IkBa-CBG/CBR reporter, luminescence ratio (green luciferase fused to IkBa over red control in TMD8 lymphoma cells), 4 h. Summed up:
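TMD8 human ABC-DLBCL cells with doxycycline-inducible IκBα–green luciferase fusion and unfused red luciferase, in 0.5% FBS medium; compounds up to 46 uM, 4 h at 37C. Green/red luminescence ratio, filter-overlap corrected, fitted to concentration-response curves.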
In general terms: In qHTS, concentration-response curves come from the screen itself.

Setting [1] is: measured here: CBR red luminescence, cell number.
Where [2] appears, read: measured here: IkBa-CBG green luminescence.

The structures appear in SMILES notation. This is one part of the list. The main result of the screen is listed elsewhere. These columns were measured beside it and carry no call. Compounds called inactive in the main read-out are mostly missing here. Words in brackets tell the shape of the fitted curve; partial curves, single points and poor fits give uncertain potencies.

The values below come from PubChem BioAssay AID493014 (National Center for Advancing Translational Sciences (NCATS), 2011).

As a reminder, the AC50 is the concentration giving half of the maximal activity seen. With `COc1ccc(/C(O)=C2/C(=O)C(=O)N(Cc3cccnc3)C2c2ccncc2)cc1F` (centres undefined), the AC50 under setting [1] is 2.31 µM [rising, full curve, poor fit]. Same read-out and setting: under `Cc1cccc(Cl)c1NC(=S)N1CCN(c2ccc([N+](=O)[O-])cn2)CC1` stands 7.94 µM [falling, partial curve, poor fit]; under `Cc1ccc(-n2c(Cc3cccs3)nnc2SCC(=O)Nc2ccc(S(N)(=O)=O)cc2)cc1`, 8.91 µM [falling, partial curve, poor fit].

Consider `O=C(Nc1ccc(F)cc1)Nc1ccc(NC(=O)c2ccccc2O)cc1`, for which the AC50 under setting [1] is 0.1 µM [rising, full curve, poor fit]. Still for that read-out and setting: under `COc1ccc(/C=C2\Sc3ccc(C(=O)NCC4CCCO4)cc3N(C)C2=O)cc1` (centres undefined) stands 20 µM [rising, single point].

Consider `COC(=O)CC1(C(=O)OC)Oc2ccc(Br)cc2C(=O)N1c1cccc(Cl)c1Cl` (centres undefined), for which the AC50 under setting [1] is 20 µM [falling, single point].

Consider `CC(Sc1nc2scc(-c3ccccc3)c2c(=O)[nH]1)C(=O)NC(N)=O` (centres undefined), for which the AC50 under setting [1] was 1.78 µM [falling, full curve].

Take `COc1ccc(Nc2ccc3c(c2)=NC2(CCCCC2)[N+]=3[O-])cc1`: the AC50 under setting [1] was 2 µM [falling, full curve]. On the same count and under the same terms, under `O=C(Nc1ccccc1C(=O)Nc1ccccc1)c1ccco1` stands 0.708 µM [falling, full curve, poor fit]; under `CC(C)NC(=O)c1ccc(-c2ccccc2C(F)(F)F)o1`, 2.91 µM [rising, single point].

In the case of `COc1cc2c(cc1OC)C(COc1ccc(F)cc1)N(C(C)=O)CC2` (centres undefined), the AC50 under setting [1] was 35.5 µM [falling, single point]. On the same count and under the same terms, to `CCCCCCCCCCOC(=O)Cn1c(COc2ccccc2)[n+](C)c2ccccc21` belongs 25.1 µM [falling, single point]; to `COC(=O)c1c(-c2ccccc2)csc1NC(=O)c1c(-c2ccccc2)noc1C`, 0.00411 µM [falling, full curve, poor fit]. Regarding `Cc1cccc(NC(=O)CSc2nc3[nH]ncc3c(=O)[nH]2)c1`, the AC50 under setting [1] was 10.3 µM [falling, partial curve]. For the compound `Cc1[nH]c2c(C)cccc2c(=O)c1Br`, the AC50 reads like this: under setting [1], 3.66 µM [falling, partial curve]; under setting [2], 2.31 µM [rising, partial curve, poor fit]. On to `CN(CCC#N)C(=O)CSc1ncnc2sc(-c3ccccc3)cc12`, for which the AC50 under setting [1] is 20 µM [falling, single point]. Same read-out and setting: under `CCC(=O)Nc1nc(-c2ccc3c(c2)CC(C)N3S(C)(=O)=O)cs1` (centres undefined) stands 11.2 µM [rising, partial curve, poor fit]; under `CCOC(=O)Cc1nnc(Nc2ccc(C(=O)NC)cc2)c2ccccc12`, 6.31 µM [falling, partial curve]. On the same count and under the same terms, under `COc1c(O)cc2oc(-c3ccc(O)c(O)c3)cc(=O)c2c1O` stands 8.91 µM [falling, partial curve, poor fit]; under `COc1ccc(NC(=S)NCCN2CCC(C)CC2)cc1Cl`, 35.5 µM [falling, single point]. For `CCOc1cc(S(=O)(=O)NCc2ccccn2)ccc1Cl`, the AC50 under setting [1] was 0.103 µM [falling, full curve, poor fit]. On the same count and under the same terms, under `Cc1ccc(S(=O)(=O)Oc2cccc(/C=N/Nc3ccc(C(=O)O)cc3)c2)cc1` stands 5.62 µM [falling, partial curve]; under `O=C(Nc1ccc(Cl)c(Cl)c1)N1CCCCCC1`, 7.08 µM [falling, full curve]. Same read-out and setting: under `O=C(CSC(=S)N1CCCC1)Nc1cc2c(cc1Br)OCCO2` stands 17.8 µM [falling, single point]. On the same count and under the same terms, to `CC12CCC(=O)N1C(C(=O)OCC(=O)Nc1cc(S(=O)(=O)N3CCCCC3)ccc1Cl)CS2` (centres undefined) belongs 23.1 µM [rising, single point]. With `Cc1cc(C(=O)Nc2ccc([N+](=O)[O-])cn2)cs1`, under setting [1], the AC50 was 14.1 µM [falling, single point]. Consider `Cc1cc(C)n(-c2nc(Nc3ccccc3C(F)(F)F)nc(-n3nc(C)cc3C)n2)n1`, for which the AC50 runs as follows: under setting [1], 18.4 µM [falling, partial curve]; under setting [2], 18.4 µM [rising, partial curve]. On to `Cc1ccc2c(c1)c1nnc(SCC(=O)Nc3ccccc3C(F)(F)F)nc1n2CC(=O)O`, for which the AC50 under setting [1] was 22.4 µM [falling, single point]. Same read-out and setting: under `O=C(Nc1ccccc1)Nc1ccno1` stands 31.6 µM [falling, single point]. Still for that read-out and setting: to `Cc1onc(-c2ccccc2)c1C(=O)Nc1nnc(-c2ccncc2)s1` belongs 23.1 µM [falling, single point]; to `CCCCN(C(=O)c1cc(OC)c(OC)c(OC)c1)C1=CC2CCC(C1)N2C` (centres undefined), 11.2 µM [rising, partial curve, poor fit]. Same read-out and setting: under `C=CCn1c(SCc2ccc(Cl)c(Cl)c2)nnc1C(CO)NC(=O)c1ccc(OC)cc1` (centres undefined) stands 2.06 µM [rising, partial curve, poor fit]. As for `Cc1cc(C)c(S(=O)(=O)N2CCN=C2c2ccccc2)c(C)c1`, the AC50 under setting [1] is 0.731 µM [rising, full curve, poor fit].

As for `O=C(NN=C1CCCC1)c1cccc(Br)c1`, the AC50 under setting [1] was 17.8 µM [falling, single point]. In the case of `NC(=O)c1ccccc1N/C=C/C(=O)c1ccco1`, the AC50 runs as follows: under setting [1], 5.17 µM [falling, full curve]; under setting [2], 3.66 µM [rising, partial curve, poor fit]. For the compound `COc1ccc(-c2noc(-c3ccc(Br)o3)n2)cc1OC`, the AC50 under setting [1] is 1.64 µM [rising, partial curve, poor fit].

On to `CCNc1cc(O)ccc1C`, for which, under setting [1], the AC50 is 11.6 µM [falling, single point]. Still for that read-out and setting: under `COc1cccc(NC(=O)CNC(=O)c2ccccc2)c1` stands 0.231 µM [rising, full curve, poor fit]; under `COc1ccc(NC(=O)C2CCN(C(=O)C3CC(=O)N(c4ccc(C)cc4)C3)CC2)cc1` (centres undefined), 35.5 µM [rising, partial curve, poor fit]. Consider `CC1CCc2c(sc(Nc3nc4c(F)cccc4s3)c2C(N)=O)C1` (centres undefined), for which the AC50 under setting [1] is 29.1 µM [falling, single point]. The same measure, in the same setting: to `Nc1ncnc2c1ncn2[C@@H]1O[C@H](CNCc2ccccc2OCc2ccc(Cl)cc2Cl)[C@@H](O)[C@H]1O` belongs 29.1 µM [falling, single point]; to `COc1ccccc1/C=C/C(=O)Nc1ccc(N2CCOCC2)cc1`, 1.58 µM [falling, full curve, poor fit]; to `COC(=O)c1ccc(N=NNc2ccccc2)cc1`, 10.3 µM [falling, partial curve, poor fit].

`O=[N+]([O-])c1ccc(O)c(C=Nc2ccc3c(c2)OCCO3)c1`: the AC50 under setting [1] was 8.2 µM [falling, partial curve]. As to `NC(=O)CCn1c(C(=O)c2cc(Cl)c(N)c(Cl)c2)c2ccccc2[n+]1[O-]`, under setting [1], the AC50 is 3.98 µM [rising, partial curve, poor fit].

In the case of `CCOC(=O)c1csc(-c2snnc2C)n1`, the AC50 under setting [1] is 12.6 µM [rising, partial curve].

On to `Cc1cccc(N2C(=O)CS/C2=N\NC(=O)c2ccc(Cl)cc2)c1C`, for which, under setting [1], the AC50 was 1.84 µM [falling, full curve, poor fit]. On the same count and under the same terms, under `COc1cccc(C(=O)NNC(=O)/C=C/c2ccccc2)c1` stands 0.891 µM [falling, full curve]. The same measure, in the same setting: to `COc1ccc(CCn2c(C(C)C)nc3oc4ccccc4c(=O)c3c2=O)cc1` belongs 11.2 µM [falling, partial curve, poor fit]. In the case of `CC(=O)Cn1ncc(N2CCOCC2)cc1=O`, under setting [1], the concentration at half-maximal activity (AC50) is 7.94 µM [falling, partial curve, poor fit]. Turning to `CCn1c2ccccc2c2cc(NC(=O)c3ccccc3-c3ccccc3C(=O)O)ccc21`, the AC50 is, setting by setting: under setting [1], 31.6 µM [rising, single point]; under setting [2], 35.5 µM [falling, partial curve, poor fit]. Take `CSCCC(NC(=O)c1ccco1)C(=O)NCc1ccc(F)cc1` (centres undefined): the AC50 under setting [1] was 6.51 µM [falling, single point]. As for `COc1cc2sc(-c3ccc(S(C)(=O)=O)cc3)c(C#CCO)c2cc1OC`, the AC50 under setting [1] was 29.1 µM [rising, single point] and the AC50 under setting [2] is 16.4 µM [falling, partial curve]. As for `CC(=O)c1ccc(Nc2cc(C)nc3c(C)cccc23)cc1`, the AC50 is 35.5 µM [falling, single point] under setting [1] and 17.8 µM [rising, single point] under setting [2].

As to `Cc1cc(F)ccc1S(=O)(=O)NCC(c1cccnc1)N1CCc2ccccc21` (centres undefined), the AC50 under setting [1] was 8.91 µM [falling, partial curve]. Same read-out and setting: to `CCOc1ccccc1NC(=O)CSC1=NN2CCCC(=O)N=C2S1` belongs 8.91 µM [falling, partial curve, poor fit]. Same read-out and setting: under `COCC(=O)Nc1cccc2ccccc12` stands 1.84 µM [falling, full curve, poor fit]. With `COc1ccc(S(=O)(=O)NNC(=O)c2cc3cc4ccccc4nc3s2)cc1`, the AC50 runs as follows: under setting [1], 10.3 µM [falling, partial curve]; under setting [2], 9.2 µM [rising, partial curve, poor fit].

Turning to `COc1ccc(C2CC(c3cccc(Br)c3)=NN2c2ccc(S(N)(=O)=O)cc2)cc1` (centres undefined), the AC50 under setting [1] is 4.11 µM [rising, single point]. Still for that read-out and setting: under `O=C(NC(=S)Nc1nc(-c2ccc([N+](=O)[O-])cc2)cs1)c1ccco1` stands 0.251 µM [rising, full curve, poor fit]. `S=C(Nc1ccc(Cl)c(Cl)c1)N1CCOCC1`: the AC50 under setting [1] is 29.1 µM [rising, single point]. Same read-out and setting: to `COc1cccc(C(C)NC(=O)Nc2cccc(C(F)(F)F)c2)c1` (centres undefined) belongs 12.6 µM [falling, partial curve, poor fit].
